Results on two substances are retold here after publication PMC10989989, “The archaeal KEOPS complex possesses a functional Gon7 homolog and has an essential function independent of the cellular t^6A modification level” (mLife, 2023).

The chains behind the UniProt entries cited, without tags or fusion partners. Where a name states a change or a piece, a line headed by the entry shows the natural chain unless it says otherwise.
UniProt F0NFC9: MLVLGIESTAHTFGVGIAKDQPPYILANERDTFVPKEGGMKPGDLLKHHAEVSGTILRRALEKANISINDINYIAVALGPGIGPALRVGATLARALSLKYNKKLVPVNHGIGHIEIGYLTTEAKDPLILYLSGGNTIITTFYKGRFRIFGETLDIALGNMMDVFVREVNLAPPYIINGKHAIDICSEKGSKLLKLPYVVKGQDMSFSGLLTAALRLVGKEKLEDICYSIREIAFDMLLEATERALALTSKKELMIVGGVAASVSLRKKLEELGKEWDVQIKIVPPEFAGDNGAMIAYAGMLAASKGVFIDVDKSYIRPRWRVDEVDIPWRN
UniProt F0NF65: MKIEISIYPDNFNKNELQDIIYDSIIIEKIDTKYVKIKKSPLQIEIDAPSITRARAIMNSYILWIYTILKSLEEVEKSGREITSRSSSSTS
UniProt F0NIH8: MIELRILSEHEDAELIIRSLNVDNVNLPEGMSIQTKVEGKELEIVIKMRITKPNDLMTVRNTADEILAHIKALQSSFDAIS

Results are given in words; binding and its absence hold for the method and conditions named. Binding seen in cells or lysates may run through a third protein. A yes stands for co-enrichment or nearness to the bait. Other partners may have been found.

This test deals with His-tagged SisKae1 overexpressed in S. islandicus (Saccharolobus islandicus REY15A) (UniProt F0NFC9). Nature of the test: affinity purification with mass spectrometry; His-tagged subunits overexpressed in S. islandicRus REY15A; co-purified proteins identified by mass spectrometry.

Consider “Pcc1 of S. islandicus (endogenous) (from UniProt F0NF65)”, for which the binding result was “binds”. On to “Pcc1‐like of S. islandicus (endogenous) (from UniProt F0NIH8)”, for which the binding entry was “binds”.
